Data as given in paper PMC8384837.
Where a chain is given by its changes, count along the chain named. The list shows a part of the results. For some of these results: At the low end of the ranking the order means little.

What was measured:
Conditions in all cases: yeast three-hybrid, YBZ-1, SC-Leu-His + 0.5 mM 3-AT, 4 days
[1] = biological target: T1, PUM1 PUF domain R4-LHR N971L + Q975R (UniProt Q14671)
T1 sequence: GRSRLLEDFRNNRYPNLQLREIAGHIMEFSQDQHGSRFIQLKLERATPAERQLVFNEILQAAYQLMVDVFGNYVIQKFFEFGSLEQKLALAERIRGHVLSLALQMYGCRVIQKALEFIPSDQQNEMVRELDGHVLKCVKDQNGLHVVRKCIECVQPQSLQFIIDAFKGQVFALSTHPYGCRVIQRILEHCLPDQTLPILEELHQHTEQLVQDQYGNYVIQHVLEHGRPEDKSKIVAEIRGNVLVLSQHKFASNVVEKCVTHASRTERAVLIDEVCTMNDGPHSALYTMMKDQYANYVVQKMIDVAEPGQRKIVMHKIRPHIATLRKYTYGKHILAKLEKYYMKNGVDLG

[2] = biological target: T2, PUM1 PUF domain R4-LNA N971L + H972N + Q975A (UniProt Q14671)
T2 sequence: T1 sequence with H145N, R148A

[3] = biological target: T3, PUM1 PUF domain R4-LNC N971L + H972N + Q975C (UniProt Q14671)
T3 sequence: T1 sequence with H145N, R148C

[4] = biological target: T4, PUM1 PUF domain R4-LRC N971L + H972R + Q975C (UniProt Q14671)
T4 sequence: T1 sequence with H145R, R148C

[5] = biological target: T5, PUM1 PUF domain R4-MLC N971M + H972L + Q975C (UniProt Q14671)
T5 sequence: T1 sequence with L144M, H145L, R148C

[6] = biological target: T6, PUM1 PUF domain R4-MNR N971M + H972N + Q975R (UniProt Q14671)
T6 sequence: T1 sequence with L144M, H145N

[7] = biological target: T7, PUM1 PUF domain R4-MNV N971M + H972N + Q975V (UniProt Q14671)
T7 sequence: T1 sequence with L144M, H145N, R148V

[8] = biological target: T8, PUM1 PUF domain R4-MPG N971M + H972P + Q975G (UniProt Q14671)
T8 sequence: T1 sequence with L144M, H145P, R148G

[9] = biological target: T9, PUM1 PUF domain R4-MPH N971M + H972P + Q975H (UniProt Q14671)
T9 sequence: T1 sequence with L144M, H145P, R148H

[10] = biological target: T10, PUM1 PUF domain R4-MPS N971M + H972P + Q975S (UniProt Q14671)
T10 sequence: T1 sequence with L144M, H145P, R148S

[11] = biological target: T11, PUM1 PUF domain R4-MPV N971M + H972P + Q975V (UniProt Q14671)
T11 sequence: T1 sequence with L144M, H145P, R148V

[12] = biological target: T12, PUM1 PUF domain R4-MRG N971M + H972R + Q975G (UniProt Q14671)
T12 sequence: T1 sequence with L144M, H145R, R148G

[13] = biological target: T13, PUM1 PUF domain R4-NCG H972C + Q975G (UniProt Q14671)
T13 sequence: T1 sequence with L144N, H145C, R148G

[14] = biological target: T14, PUM1 PUF domain R4-NNG H972N + Q975G (UniProt Q14671)
T14 sequence: T1 sequence with L144N, H145N, R148G

[15] = biological target: T15, PUM1 PUF domain R4-NNL H972N + Q975L (UniProt Q14671)
T15 sequence: T1 sequence with L144N, H145N, R148L

[16] = biological target: T16, PUM1 PUF domain R4-NNV H972N + Q975V (UniProt Q14671)
T16 sequence: T1 sequence with L144N, H145N, R148V

[17] = biological target: T17, PUM1 PUF domain R4-NNW H972N + Q975W (UniProt Q14671)
T17 sequence: T1 sequence with L144N, H145N, R148W

[18] = biological target: T18, PUM1 PUF domain R4-NPA H972P + Q975A (UniProt Q14671)
T18 sequence: T1 sequence with L144N, H145P, R148A

[19] = biological target: T19, PUM1 PUF domain R4-NPG H972P + Q975G (UniProt Q14671)
T19 sequence: T1 sequence with L144N, H145P, R148G

[20] = biological target: T20, PUM1 PUF domain R4-NRG H972R + Q975G (UniProt Q14671)
T20 sequence: T1 sequence with L144N, H145R, R148G

[21] = biological target: T21, PUM1 PUF domain R4-NWP H972W + Q975P (UniProt Q14671)
T21 sequence: T1 sequence with L144N, H145W, R148P

[22] = biological target: T22, PUM1 PUF domain R4-NYP H972Y + Q975P (UniProt Q14671)
T22 sequence: T1 sequence with L144N, H145Y, R148P

[23] = biological target: T23, PUM1 PUF domain R4-PFD N971P + H972F + Q975D (UniProt Q14671)
T23 sequence: T1 sequence with L144P, H145F, R148D

[24] = biological target: T24, PUM1 PUF domain R4-PFF N971P + H972F + Q975F (UniProt Q14671)
T24 sequence: T1 sequence with L144P, H145F, R148F

[25] = biological target: T25, PUM1 PUF domain R4-PFG N971P + H972F + Q975G (UniProt Q14671)
T25 sequence: T1 sequence with L144P, H145F, R148G

[26] = biological target: T26, PUM1 PUF domain R4-PFN N971P + H972F + Q975N (UniProt Q14671)
T26 sequence: T1 sequence with L144P, H145F, R148N

[27] = biological target: T27, PUM1 PUF domain R4-PFR N971P + H972F + Q975R (UniProt Q14671)
T27 sequence: T1 sequence with L144P, H145F

[28] = biological target: T28, PUM1 PUF domain R4-PFS N971P + H972F + Q975S (UniProt Q14671)
T28 sequence: T1 sequence with L144P, H145F, R148S

[29] = biological target: T29, PUM1 PUF domain R4-PFT N971P + H972F + Q975T (UniProt Q14671)
T29 sequence: T1 sequence with L144P, H145F, R148T

[30] = biological target: T30, PUM1 PUF domain R4-PFV N971P + H972F + Q975V (UniProt Q14671)
T30 sequence: T1 sequence with L144P, H145F, R148V

[31] = biological target: T31, PUM1 PUF domain R4-PFY N971P + H972F + Q975Y (Homo sapiens) (UniProt Q14671)
T31 sequence: T1 sequence with L144P, H145F, R148Y

[32] = biological target: T32, PUM1 PUF domain R4-PHA N971P + Q975A (UniProt Q14671)
T32 sequence: T1 sequence with L144P, R148A

[33] = biological target: T33, PUM1 PUF domain R4-PHG N971P + Q975G (UniProt Q14671)
T33 sequence: T1 sequence with L144P, R148G

[34] = biological target: T34, PUM1 PUF domain R4-PHQ N971P (UniProt Q14671)
T34 sequence: T1 sequence with L144P, R148Q

[35] = biological target: T35, PUM1 PUF domain R4-PHS N971P + Q975S (UniProt Q14671)
T35 sequence: T1 sequence with L144P, R148S

[36] = biological target: T36, PUM1 PUF domain R4-PHV N971P + Q975V (UniProt Q14671)
T36 sequence: T1 sequence with L144P, R148V

[37] = biological target: T37, PUM1 PUF domain R4-PRC N971P + H972R + Q975C (UniProt Q14671)
T37 sequence: T1 sequence with L144P, H145R, R148C

GGCUAGAACUAGUGGAUCCCCCGGCGCCCGGCGGCUCGAGCCCGGGUAAGUGUAGAUAGUCUGCAUGCCGCCGGGCGCCAUGCCUGCAGGUCGACUCUAGAAAACAUG
binding signal (log2 enrichment (interaction score)) [1]: < -6.15
binding signal (log2 enrichment (interaction score)) [2]: < -6.34
binding signal (log2 enrichment (interaction score)) [3]: < -7.29
binding signal (log2 enrichment (interaction score)) [4]: < -6.8
binding signal (log2 enrichment (interaction score)) [5]: < -5.51
binding signal (log2 enrichment (interaction score)) [6]: < -6.13
binding signal (log2 enrichment (interaction score)) [7]: < -5.62
binding signal (log2 enrichment (interaction score)) [8]: < -5.57
binding signal (log2 enrichment (interaction score)) [9]: < -7.23
binding signal (log2 enrichment (interaction score)) [10]: < -6.2
binding signal (log2 enrichment (interaction score)) [11]: < -5.69
binding signal (log2 enrichment (interaction score)) [12]: < -6.19
binding signal (log2 enrichment (interaction score)) [13]: < -6.65
binding signal (log2 enrichment (interaction score)) [14]: < -5.72
binding signal (log2 enrichment (interaction score)) [15]: < -6.11
binding signal (log2 enrichment (interaction score)) [16]: < -6.74
binding signal (log2 enrichment (interaction score)) [17]: < -5.53
binding signal (log2 enrichment (interaction score)) [18]: < -6.06
binding signal (log2 enrichment (interaction score)) [19]: < -6.94
binding signal (log2 enrichment (interaction score)) [20]: < -6.17
binding signal (log2 enrichment (interaction score)) [21]: -2.46
binding signal (log2 enrichment (interaction score)) [22]: -2.7
binding signal (log2 enrichment (interaction score)) [23]: < -5.48
binding signal (log2 enrichment (interaction score)) [24]: < -6.02
binding signal (log2 enrichment (interaction score)) [25]: < -7.01
binding signal (log2 enrichment (interaction score)) [26]: < -5.38
binding signal (log2 enrichment (interaction score)) [27]: < -7.82
binding signal (log2 enrichment (interaction score)) [28]: < -7.34
binding signal (log2 enrichment (interaction score)) [29]: < -5.95
binding signal (log2 enrichment (interaction score)) [30]: < -7.56
binding signal (log2 enrichment (interaction score)) [31]: 1.62
binding signal (log2 enrichment (interaction score)) [32]: < -6.74
binding signal (log2 enrichment (interaction score)) [33]: < -6.32
binding signal (log2 enrichment (interaction score)) [34]: < -5.87
binding signal (log2 enrichment (interaction score)) [35]: < -4.86
binding signal (log2 enrichment (interaction score)) [36]: < -6.36
binding signal (log2 enrichment (interaction score)) [37]: < -6.58
